PubChem BioAssay AID1508588, Peter MacCallum Cancer Centre – 2020
In all, the deposit lists about 18,000 reagents; this is an unselected part. Over the whole deposit, 790 (4.4%) are marked active. 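Calls rest on a combination of fold-change classes in drug and vehicle arms, not all shown here.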

Aim: 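Genome-wide search for knock-downs that heighten vemurafenib action in melanoma cells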 (primary screen)
Cell system: human WM266.4 melanoma cells (BRAF V600 mutant)
Reagent: siRNA pool against human genes, 40 nM
Time to read-out: 96 h from transfection to read-out
Conditions: vemurafenib 300 nM (about IC25), added 48 h after transfection, for 48 h; comparison arm got DMSO vehicle only
Read-out: 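Cell gain (DAPI nuclei at end minus before drug, mean of two replicates) and medium lactate by absorbance per cell, both as ratio to non-targeting siRNA, also grouped into fold-change classes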
Scale: cell gain with vemurafenib: higher = more cell gain than with non-targeting siRNA; lactate per cell with vemurafenib: higher = more lactate made per cell
Call rule: 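Enhancement is called by pairing each knock-down's vehicle-arm and drug-arm fold-change classes for viability or glycolysis; which class combinations qualify is not given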
Meaning of the calls: active = enhances vemurafenib effect; inactive = no enhancement seen

SPATA25 (spermatogenesis associated 25) | cell gain with vemurafenib = 0.69; lactate per cell with vemurafenib = 0.54; call = inactive
HNRNPM (heterogeneous nuclear ribonucleoprotein M) | cell gain with vemurafenib = 0.7; lactate per cell with vemurafenib = 1.86; call = inactive
COL5A2 (collagen type V alpha 2 chain) | cell gain with vemurafenib = 0.73; lactate per cell with vemurafenib = 0.64; call = inactive
GPT (glutamic--pyruvic transaminase) | cell gain with vemurafenib = 0.46; lactate per cell with vemurafenib = 1.86; call = inactive
TIPE1 (TNF alpha induced protein 8 like 1) | cell gain with vemurafenib = 0.31; lactate per cell with vemurafenib = 1.27; call = inactive
FBXO21 (F-box protein 21) | cell gain with vemurafenib = 0.16; lactate per cell with vemurafenib = 0.81; call = inactive
SFXN5 (sideroflexin 5) | cell gain with vemurafenib = -0.06; lactate per cell with vemurafenib = 0.64; call = inactive
ZNF14 (zinc finger protein 14) | cell gain with vemurafenib = 0.24; lactate per cell with vemurafenib = 0.57; call = inactive
LINC02913 (long independently transcribed non-coding RNA 2913) | cell gain with vemurafenib = 0.36; lactate per cell with vemurafenib = 1.17; call = inactive
OR8K1 (olfactory receptor family 8 subfamily K member 1) | cell gain with vemurafenib = 0.68; lactate per cell with vemurafenib = 0.38; call = inactive
IRF2 (interferon regulatory factor 2) | cell gain with vemurafenib = 0.8; lactate per cell with vemurafenib = 1; call = inactive
CIDEC (cell death inducing DFFA like effector c) | cell gain with vemurafenib = 0.83; lactate per cell with vemurafenib = 0.86; call = inactive
SSX5 (SSX family member 5) | cell gain with vemurafenib = -0.02; lactate per cell with vemurafenib = 1.85; call = inactive
APEX2 (apurinic/apyrimidinic endodeoxyribonuclease 2) | cell gain with vemurafenib = 0.23; lactate per cell with vemurafenib = 2.06; call = inactive
POLD1 (DNA polymerase delta 1, catalytic subunit) | cell gain with vemurafenib = 0.9; lactate per cell with vemurafenib = 0.71; call = inactive
ZC3H6 (zinc finger CCCH-type containing 6) | cell gain with vemurafenib = 0.68; lactate per cell with vemurafenib = 1.08; call = inactive
RECK (reversion inducing cysteine rich protein with kazal motifs) | cell gain with vemurafenib = 0.88; lactate per cell with vemurafenib = 1.07; call = inactive
ABHD18 (abhydrolase domain containing 18) | cell gain with vemurafenib = 1.15; lactate per cell with vemurafenib = 0.94; call = inactive

Individual results from the list.
Under “call”, OR8K1 (olfactory receptor family 8 subfamily K member 1) has inactive
For “call”, POLD1 (DNA polymerase delta 1, catalytic subunit) shows inactive

Further reagents follow:
BFSP1 (beaded filament structural protein 1) | cell gain with vemurafenib = 0.43; lactate per cell with vemurafenib = 0.86; call = inactive
WDR31 (WD repeat domain 31) | cell gain with vemurafenib = 0.59; lactate per cell with vemurafenib = 0.7; call = inactive
NEK4 (NIMA related kinase 4) | cell gain with vemurafenib = 0.57; lactate per cell with vemurafenib = 1.36; call = inactive
KLK1 (kallikrein 1) | cell gain with vemurafenib = 1.18; lactate per cell with vemurafenib = 0.98; call = inactive
PRADC1 (protease associated domain containing 1) | cell gain with vemurafenib = 0.66; lactate per cell with vemurafenib = 1.56; call = inactive
HMBOX1 (homeobox containing 1) | cell gain with vemurafenib = 0.84; lactate per cell with vemurafenib = 0.71; call = inactive
ADGRE2 (adhesion G protein-coupled receptor E2) | cell gain with vemurafenib = 0.75; lactate per cell with vemurafenib = 0.75; call = inactive
UPP2 (uridine phosphorylase 2) | cell gain with vemurafenib = 1.08; lactate per cell with vemurafenib = 0.78; call = inactive
OSBPL1A (oxysterol binding protein like 1A) | cell gain with vemurafenib = 1.35; lactate per cell with vemurafenib = 0.6; call = inactive
